# PMC8156151 (The European Respiratory Journal, 2021)
# Some results come without the dose or concentration used.
# Columns and labels:
# Format in all cases: in vivo, human
# Details in all cases: IPF patients, percentage of baseline
# [1] = test system: PDGF-BB; assay: Plasma biomarker PDGF-BB (Luminex/ELISA)
# Description: (§1) All patients, investigators, sites and study sponsor personnel were blinded to the study group assignments throughout the study. Patients underwent study-specific assessments on days 2, 3, 7, 14 and 15, and a post-study assessment was carried out 26–30 days after the last day of the study period. Assessments included vital signs (supine blood pressure, pulse, oxygen saturation, oral temperature and respiratory rate), spirometry, 12-lead ECG, physical examination, laboratory safety screen (haematology, biochemistry, urinalysis and urinary drugs of abuse screen) and blood sampling for PK measurements. All adverse events and concomitant medications were recorded from the time of the screening visit until the post-study follow-up visit. BAL was performed at day −1 (24 h before the first dose) and at day 14 (2 h after the last dose). […]
# (§2) BAL cells were separated from fluid by centrifugation, and cells were collected, stained with antibodies (supplementary material) and then fixed before analysis using a LSR Fortessa flow cytometer (Becton Dickinson, Franklin Lakes, NJ, USA). Data were analysed using FlowJo software (Tree Star, Ashland, OR, USA). […] Gal-3 expression (mean fluorescence intensity) was determined from the macrophage gate (supplementary figures S1 and S2). […] Samples were analysed by magnetic Luminex assay (R&D Systems, Minneapolis, MN, USA) or ELISA. […]
# [2] = test system: PAI-1; assay: Plasma biomarker PAI-1
# Description: as §1, §2
# [3] = test system: CCL18 (PARC); assay: Plasma biomarker CCL18
# Description: as §1, §2
# [4] = test system: YKL-40 (CHI3L1); assay: Plasma biomarker YKL-40
# Description: as §1, §2
# [5] = test system: MMP-8; assay: Plasma biomarker MMP-8
# Description: as §1, §2
# [6] = test system: HGF; assay: Plasma biomarker HGF
# Description: as §1, §2
# [7] = test system: MMP-1; assay: Plasma biomarker MMP-1
# Description: as §1, §2
# [8] = test system: CCL2 (MCP-1); assay: Plasma biomarker CCL2
# Description: as §1, §2
# [9] = test system: CCL5 (RANTES); assay: Plasma biomarker CCL5
# Description: as §1, §2
# [10] = test system: MIF; assay: Plasma biomarker MIF
# Description: as §1, §2
# [11] = test system: MMP-7; assay: Plasma biomarker MMP-7
# Description: as §1, §2
# [12] = test system: PTX3; assay: Plasma biomarker PTX3
# Description: as §1, §2
# [13] = test system: Osteopontin; assay: Plasma biomarker osteopontin
# Description: as §1, §2
# [14] = test system: Gal-1; assay: Plasma biomarker Gal-1
# Description: as §1, §2
smiles,measurement,setting,value
OC[C@H]1O[C@@H](S[C@@H]2O[C@H](CO)[C@H](O)[C@H](n3cc(-c4cccc(F)c4)nn3)[C@H]2O)[C@H](O)[C@@H](n2cc(-c3cccc(F)c3)nn2)[C@H]1O [TD139],"PDGF-BB, analysis including dose as a continuous covariate: Estimate",[1],-18.06
same,"PAI-1, analysis including dose as a continuous covariate: Estimate",[2],-12.25
same,"CCL18 (PARC), analysis including dose as a continuous covariate: Estimate",[3],-2.88
same,"YKL-40 (CHI3L1), analysis including dose as a continuous covariate: Estimate",[4],-2.88
same,"MMP-8, analysis including dose as a continuous covariate: Estimate",[5],-11.55
same,"HGF, analysis including dose as a continuous covariate: Estimate",[6],-3.44
same,"MMP-1, analysis including dose as a continuous covariate: Estimate",[7],-7.11
same,"CCL2 (MCP-1), analysis including dose as a continuous covariate: Estimate",[8],-6.35
same,"CCL5 (RANTES), analysis including dose as a continuous covariate: Estimate",[9],-3.93
same,"MIF, analysis including dose as a continuous covariate: Estimate",[10],-9.92
same,"MMP-7, analysis including dose as a continuous covariate: Estimate",[11],-5.22
same,"PTX-3, analysis including dose as a continuous covariate: Estimate",[12],-5.14
same,"Osteopontin, analysis including dose as a continuous covariate: Estimate",[13],-2.40
same,"Galectin-1, analysis including dose as a continuous covariate: Estimate",[14],-1.17
